Laboratory results taken from PubChem BioAssay AID2685 (National Center for Advancing Translational Sciences (NCATS), 2010).
The list shows a part of the results. The main result of the screen is listed elsewhere. These columns were measured beside it and carry no call. Most of these compounds were active or inconclusive in the main read-out, so they are no random draw. Words in brackets tell the shape of the fitted curve; partial curves, single points and poor fits give uncertain potencies.

Assay: qHTS Assay for Lipid Storage Modulators in Drosophila S3 Cells;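 as to cell number change: cells counted by Cell Tracker Red CMTPX staining in the red channel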
Settings: BODIPY lipid droplet fluorescence, 18-24 h; for cell number change: measured here: cell count max response, cells fed with added oleic acid
Procedure, shortened: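 Drosophila S3 cells got compounds at several concentrations plus oleic acid (400 uM solution). Laser-scanning cytometry with 488 nm excitation read lipid droplets at 500-530 nm and cells at 575-640 nm. Percent activity was relative to 20 uM Triacsin C.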

[1] = measured here: lipid fluorescence (Fed channel) AC50, cells fed with added oleic acid
[2] = measured here: cell number channel AC50, cells fed with added oleic acid

SMILES	cell number change	AC50 [1]	AC50 [2]
O=C(N/N=C/C=N/NC(=O)c1ccco1)c1ccco1	3.24%	4.61 µM [rising, partial curve]	–
CNC(=O)c1ccc(N(Cc2ccccc2C)S(C)(=O)=O)cc1	8.41%	4.11 µM [falling, single point]	–
c1ccc(Cn2nnc3c(N4CCN(Cc5ccc6c(c5)OCO6)CC4)ncnc32)cc1	22.6%	13 µM [rising, partial curve]	–
CCNc1nnc(SCC(=O)c2c(N)n(C3CC3)c(=O)[nH]c2=O)s1	-7.77%	18.4 µM [rising, partial curve]	–
COc1ccc(C)cc1NC(=O)COC(=O)c1c(C)noc1C	20.8%	3.26 µM [rising, partial curve]	1.64 µM [rising, partial curve, poor fit]
CCN1CCN(CC(=O)Nc2ccc(C)cc2C)C(=O)C1=O	-19.2%	–	0.411 µM [rising, full curve, poor fit]
COC(=O)Cn1c(C)c(/C=C/c2cc[n+](C)cc2)c2ccccc21	-79.1%	–	20.6 µM [falling, single point]
COc1cc(/C=C/C(=O)OCC(=O)Nc2ccc(S(=O)(=O)N3CCCC3)cc2)ccc1O	23.1%	20.6 µM [rising, single point]	–
O=c1oc2ccccc2c(Nc2ccc3ccccc3c2)c1[N+](=O)[O-]	-1.92%	–	–
Cc1ccc2c(Cl)c(C(=O)NCC(c3ccco3)N3CCCC3)sc2c1 (stereo not given)	30.3%	–	0.291 µM [rising, full curve]
CCCn1c(C)cc(/C=C(\C#N)C(=O)OCC(=O)Nc2cccc(S(N)(=O)=O)c2)c1C	-4.95%	6.51 µM [rising, single point]	–
Cc1ccc(Nc2nc(-c3ccccc3)cs2)nc1	22.5%	–	–
COc1ccccc1OCc1nnc(SCC(=O)N2CCCCC2)o1	15.7%	2.31 µM [rising, partial curve]	–
Nc1cc(=O)[nH]c(SCC(=O)Nc2ccc3c(c2)CCC3)n1	27.4%	0.116 µM [rising, full curve, poor fit]	0.231 µM [rising, partial curve]
O=C(c1ccc2c(c1)OCCO2)N1CCN(c2ncc(C(F)(F)F)cc2Cl)CC1	24.1%	–	4.11 µM [rising, full curve, poor fit]
O=C(O)c1ccccc1SCC(=O)N1CCCCC1	-33.7%	20.6 µM [falling, partial curve]	1.03 µM [falling, full curve]
c1ccc(CCc2nc(-c3ccc(-n4cccc4)cc3)no2)cc1	15.3%	–	–
O=C(CCc1nc2ccccc2[nH]c1=O)OCC(=O)c1cccc2ccccc12	–	29.1 µM [rising, partial curve, poor fit]	–
O=C(c1ccco1)N(CC1CCCO1)c1nc(-c2ccccc2)cs1 (stereo not given)	4.2%	0.13 µM [rising, full curve, poor fit]	–

Some of these compounds in order of SMILES length, high to low:
SMILES	cell number change	AC50 [1]	AC50 [2]
CCNc1nnc(SCC(=O)c2c(N)n(C3CC3)c(=O)[nH]c2=O)s1	-7.77%	18.4 µM [rising, partial curve]	–
O=c1oc2ccccc2c(Nc2ccc3ccccc3c2)c1[N+](=O)[O-]	-1.92%	–	–
O=C(N/N=C/C=N/NC(=O)c1ccco1)c1ccco1	3.24%	4.61 µM [rising, partial curve]	–
Cc1ccc(Nc2nc(-c3ccccc3)cs2)nc1	22.5%	–	–

Later entries.

SMILES	cell number change	AC50 [1]	AC50 [2]
Cc1ccc(NC(=O)CC2S/C(=N/c3nccs3)N(C)C2=O)cc1C (stereo not given)	27.8%	0.291 µM [rising, partial curve, poor fit]	2.59 µM [rising, full curve, poor fit]
NS(=O)(=O)c1ccc(S(=O)(=O)N2CCCC2)cc1	20%	23.1 µM [falling, single point]	–
CCOC(=O)c1c(CS(=O)(=O)c2ccccc2)n(C)c2cc(Br)c(O)cc12	-23.9%	–	3.26 µM [falling, full curve, poor fit]
O=C1OC(c2ccco2)=N/C1=C\c1ccc(-c2cccc(C(F)(F)F)c2)o1	-18.9%	0.291 µM [rising, full curve]	3.66 µM [rising, partial curve]
N#Cc1ccccc1NC(=O)COC(=O)C1CCN(C(=O)c2ccc(Cl)cc2)CC1	-45.6%	0.164 µM [falling, full curve]	14.6 µM [falling, partial curve, poor fit]
CCOC(=O)C1=C(C)NC2=C(C(=O)c3ccccc32)C1c1cccnc1 (stereo not given)	-13.7%	–	–
CCN(CC)S(=O)(=O)N1CCC(C(=O)NC(C)CCc2ccccc2)CC1 (stereo not given)	-0.558%	–	–
COc1ccc(OCC(=O)Nc2ccc(C(=O)Nc3ccccc3C(=O)O)cc2)cc1	-15.3%	29.1 µM [rising, single point]	–
COc1cccc(NC(=O)CN(C)C(=O)c2ccccc2Sc2ccccc2C#N)c1	27.9%	6.51 µM [falling, single point]	–
CCCCN(C(=O)c1cccc(-n2cccc2)c1)c1c(N)n(Cc2ccccc2)c(=O)[nH]c1=O	-17.2%	–	–
CC1(C)CC(=O)c2sc(N3CCCCC3)nc2C1	31.6%	0.092 µM [falling, single point]	14.6 µM [rising, single point]
O=c1[nH]c2ccc(Cl)cc2c(-c2ccccc2)c1N1CCN(CCO)CC1	10.3%	–	–
COc1ccc(N2C(=O)C(Cl)=C(Oc3cccc(OC)c3)C2=O)cc1	-24.2%	29.1 µM [falling, single point]	6.51 µM [falling, single point]
CC1=C(C(=O)OCC2CCCO2)C(c2ccc(C)o2)C2=C(CC(c3ccc(N(C)C)cc3)CC2=O)N1 (stereo not given)	33.7%	1.3 µM [rising, partial curve]	1.84 µM [rising, partial curve]
C=CCN(C(=O)c1csnn1)C(C(=O)NC1CCCCC1)c1ccccc1F (stereo not given)	–	16.4 µM [falling, partial curve]	–
O=C(NCCc1ccc2c(c1)OCCO2)c1cccc(F)c1	–	0.206 µM [falling, full curve, poor fit]	3.66 µM [rising, single point]
COC(=O)C1=C(C)N(CCc2ccccc2)C(=O)C1	-14.1%	1.16 µM [falling, single point]	–
COc1ccc(-c2cc(=O)oc3cc(OCC(=O)NCCCn4ccnc4)ccc23)cc1	-12.8%	8.2 µM [falling, partial curve, poor fit]	–
C#CCOc1c(Br)cc(/C=C2/C(=O)ON=C2C)cc1OCC	25.4%	4.61 µM [rising, partial curve]	–

Full records, looked up by structure:
Cc1ccc(NC(=O)CC2S/C(=N/c3nccs3)N(C)C2=O)cc1C (stereo not given) is listed as cell number change: 27.8%; AC50 [1]: 0.291 µM [rising, partial curve, poor fit]; AC50 [2]: 2.59 µM [rising, full curve, poor fit]
COc1ccc(N2C(=O)C(Cl)=C(Oc3cccc(OC)c3)C2=O)cc1 is listed as cell number change: -24.2%; AC50 [1]: 29.1 µM [falling, single point]; AC50 [2]: 6.51 µM [falling, single point]

(listing goes on)

SMILES	cell number change	AC50 [1]	AC50 [2]
COc1cc2cc(C(c3nnnn3Cc3ccc(F)cc3)N3CCCCCC3)c(=O)[nH]c2cc1OC (stereo not given)	-4.76%	0.92 µM [rising, full curve, poor fit]	–
O=C(c1ccc(COc2ccccc2Br)o1)N1N=C(C(F)F)CC1(O)C(F)F (stereo not given)	-71%	29.1 µM [falling, single point]	20.6 µM [falling, single point]
CCn1cc(C(=O)NCc2ccc3c(c2)OCO3)c(=O)c2cc(F)c(N3CCN(C(=O)c4ccco4)CC3)cc21	-9.93%	0.461 µM [rising, partial curve, poor fit]	–
COc1cccc(/C=N/NC(=O)C(=O)NCc2ccco2)c1O	-11.3%	0.58 µM [falling, single point]	–
COc1ccc(OC(=O)CCCN2C(=O)c3ccccc3C2=O)cc1	-12.2%	–	6.51 µM [rising, single point]
Cn1c(=O)n(-c2ccccc2)c(=O)c2c3c(sc21)COC(C)(C)C3	33.6%	0.082 µM [falling, single point]	29.1 µM [rising, single point]
CCOC(=O)N1CCC(NC(=O)CCN2C(=O)COc3ccccc32)CC1	-54.2%	–	25.9 µM [falling, partial curve]
CS(=O)(=O)N(CC(=O)N1CCOCC1)c1cccc(Cl)c1Cl	-6.04%	–	–
COc1ccc2cc1Oc1ccc(cc1)CC1c3c(cc(OC)c4c3Oc3cc5c(cc3O4)CCNC5C2)CCN1C (stereo not given)	-12.3%	–	–
CC1(C)C(=O)N(CCN2CCC(C(=O)c3ccc(F)cc3)CC2)c2ccccc21	19.3%	20.6 µM [rising, single point]	–
CCOC(=O)CSc1nnc(-c2ccco2)n1C	0.586%	0.206 µM [falling, full curve, poor fit]	–
CCN(Cc1ccccc1)S(=O)(=O)c1ccc(C(=O)N(CCCN(C)C)c2nc3ccc(F)cc3s2)cc1	18.3%	–	–
CCN1CCN(C(=O)CN(c2ccc(F)c(Cl)c2)S(C)(=O)=O)CC1	-51.9%	0.116 µM [falling, full curve]	6.51 µM [falling, partial curve, poor fit]
COc1cc2cccc(OC)c(=O)c2c(O)c1OC	15.7%	–	–
Cc1nn(C2CCCO2)c(=O)nc1N (stereo not given)	8.71%	6.51 µM [falling, partial curve, poor fit]	–
CCN(CC(=O)Nc1c(F)cccc1F)C(=O)CCCOc1ccc(OC)cc1	-11.6%	29.1 µM [falling, single point]	–
CCc1ccc(NC(=O)c2ccc3c(=O)n4c(nc3c2)CCCCC4)cc1	8.75%	0.082 µM [rising, partial curve, poor fit]	–
O=C(c1cccc(F)c1)N1CCN(CC2CC3C=CC2C3)CC1 (stereo not given)	-59.8%	0.0058 µM [rising, full curve, poor fit]	25.9 µM [falling, single point]
COC(=O)c1ccccc1NC(=O)c1cc([N+](=O)[O-])nn1Cc1ccccc1	171%	18.4 µM [rising, partial curve]	23.1 µM [rising, partial curve]
